{"source": "patent US10166290B2", "about": "“Intralesional (Intratumoral) dinitrochlorobenzene and associated compounds coadministered with checkpoint inhibitors for cancer treatment including treatment of metastatic cutaneous cancers” (priority 2017, dated 2019)", "key": {"[1]": {"experiment": "Spectrophotometric (ultraviolet) assay of stored DNCB acetone solution", "assay_type": "physicochemical", "details": "after one year at 0 degrees C"}, "[2]": {"system": "metastatic cutaneous tumor nodules", "details": "cited from earlier work"}, "circulating lymphocytes": {"system": "circulating lymphocytes", "details": "intradermal administration, tested after six weeks, guinea pigs, mice, monkeys, humans, published (12), cited from earlier work"}, "[3]": {"system": "progressive, locally metastatic melanoma", "experiment": "Intralesional DNCB injections into melanoma satellite / in transit metastatic lesions, case reports of three patients", "assay_type": "in vivo, human", "excerpt": "Following are the case reports of three long term (over ten year) survivors treated with intralesional DNCB in the setting of what was apparently uncontrollable, progressive, locally metastatic melanoma, ordinarily lethal as a result of subsequent progressive metastatic disease to the liver, lungs and/or brain.\nPatient #1 was […] when they presented for treatment with progressive satellitosis and in transit metastases in their right leg. Four years previously they had undergone elsewhere a wide excision and split thickness skin grafting for a Clark Level IV melanoma of their right calf. […] One month prior to their presentation with satellitosis, recurrence had been noticed in the skin of the right popliteal fossa, and slightly higher. Their surgeon had planned to do a local excision in the region but had desisted when, at the time of their skin incision, multiple metastatic deposits were grossly visible in the deep dermal and subcutaneous regions. […] Two weeks after presentation, at the time of their first round of intralesional injections, the patient was noted to have 14 metastatic lesions in the posterior thigh region. These were each infiltrated with xylocaine and injected with DNCB. Each lesion was individually marked and followed. It was later estimated that 13 of the 14 lesions injected on this round ultimately regressed. A month after the first round of injections the patient underwent a second round of injections into five lesions on the posterior thigh. Four weeks after their second round of injections, a third round of injections was carried out for 10 lesions which had newly appeared. […] Accordingly the patient was taken to the operating room and an excision was carried out. There was extensive permeation of the soft tissue with residual melanoma, which was left in place at the termination of the gross excision.\nPatient #2 was […] when they first presented with multiple melanoma satellite lesions on their left leg. […] Three years before their presentation, their primary melanoma had been excised, and they had undergone a prophylactic lymph node dissection, with removal of their superficial inguinal lymph nodes, which were reportedly free of apparent metastatic tumor. However following that left inguinal node dissection the patient had pain and dysesthesia in the left leg, presumably related to trauma to the cutaneous branches of the left femoral nerve. […]\nPatient #3 was […] when they saw their local physician in upstate New York because of a pigmented posterior scalp lesion. Biopsy at that time was originally read as a (benign) blue nevus. […] The reoccurance led to a rebiopsy, now one year after the original biopsy which had been read as benign. […]"}}, "note": "Where two headings read alike, the source gives them in different places. For at least one compound, name, drawing or mass did not settle the structure.", "data": [{"smiles": "O=[N+]([O-])c1ccc(Cl)c([N+](=O)[O-])c1", "note": "[DNCB, 2, 4 dinitrochlorobenzene]", "values": [{"measurement": "potency and purity of stored solution", "setting": "[1]", "result": "full potency and purity"}, {"measurement": "progression of metastatic nodules in patients undergoing intralesional treatment", "setting": "[2]; inventor's publication", "result": "at least temporary cessation of progression of metastatic nodules in many patients"}, {"measurement": "efficacy relative to intralesional BCG", "setting": "[2]; published randomized prospective study (3)", "result": "equally effective"}, {"measurement": "immune capability / phytohemagglutinin (PHA) responsiveness of circulating lymphocytes", "setting": "circulating lymphocytes", "result": "capable of increasing general immune capability"}, {"measurement": "immune capability / phytohemagglutinin (PHA) responsiveness of circulating lymphocytes", "setting": "circulating lymphocytes; listed as dinitrochlorobenzene", "result": "augmentation of immunological capability"}, {"measurement": "injected lesions that ultimately regressed", "setting": "[3]; Patient #1, first round of intralesional injections, estimated", "result": "13 of the 14"}, {"measurement": "regression of injected lesions with followup", "setting": "[3]; Patient #1, fourth round, 11 lesions injected", "result": "all felt to regress"}, {"measurement": "injected lesions no longer apparent", "setting": "[3]; Patient #1, third round of injections", "result": "Seven of the 10"}, {"measurement": "response of injected lesions", "setting": "[3]; three long term survivors, overall observation", "result": "injected lesions were observed to regress and, in many cases, disappear"}]}]}
